Here are results for 42 sequences from PMC7819943, “Rice protein-binding microarrays: a tool to detect cis-acting elements near promoter regions in rice”.

Chains of the proteins cited; added tags and fusions are not shown.
UniProt Q0JBA9, entry or part of it: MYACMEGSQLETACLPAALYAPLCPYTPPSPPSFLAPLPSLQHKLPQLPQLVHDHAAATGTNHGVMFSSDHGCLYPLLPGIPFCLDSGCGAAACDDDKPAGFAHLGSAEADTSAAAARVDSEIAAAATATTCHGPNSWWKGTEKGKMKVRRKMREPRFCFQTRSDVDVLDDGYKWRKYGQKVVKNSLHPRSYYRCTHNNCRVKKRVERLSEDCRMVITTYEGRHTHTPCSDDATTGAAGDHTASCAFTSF

Some of the results follow.

This experiment has as its target OsWRKY34 (Oryza sativa, UniProt Q0JBA9 1-250). Kind of experiment: protein-binding microarray (RPBM); PBS, 2% BSA, 51.3 ng/ul salmon testes DNA, 50 uM zinc acetate, 200 nM TF, 25 C, 1 h; high values mean tight binding. As to conditions: protein: recombinant; tags: N-terminal polyhistidine and DsRed monomer fusion (pET32a); label: CyDye5-dUTP incorporated in the synthesized complementary strand; 3' TTTTT single-stranded linker to array surface; dsDNA, one strand shown. The method in brief: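 The binding signal for each feature is its fluorescence intensity in arbitrary units. An Axon 4000B scanner was used to read a custom Agilent array that had been made double-stranded with Cy5-dUTP primer extension, blocked with 2% BSA, incubated at 25 °C for 1 h with 200 nM protein in PBS, 2% BSA, salmon testes DNA and 50 µM zinc acetate, and washed. The protein was an N-terminal polyhistidine–DsRed transcription factor fusion from E. coli BL21-CodonPlus, purified on Ni–NTA.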
With “CGCCGGCGCTCCAGCTCCCGTCCCTGCAGACGTGCGAAAGCGGAGTCACCTAGTGCAG”, the binding signal is 8370 fluorescence intensity (a.u.).

Take “GACGAGGTTACTCCCCGTCATGCACTCTGCTTCATCGCGCCGGAGTCACCTAGTGCAG”: the binding signal is 8870 fluorescence intensity (a.u.). As for “CCTACCCCTACCGCTCCTGCCTGCTTCGCCCGCCGCCGCCCGGAGTCACCTAGTGCAG”, the binding signal is 8340 fluorescence intensity (a.u.). Take “CCCGACACAGGCACTGCATTCCGCGACACATTCCTCCCTACGGAGTCACCTAGTGCAG”: the binding signal is 8690 fluorescence intensity (a.u.). Regarding “CGTGTTGGGGTTCTCTTCCTGCTGCTTTGGCCACCTGGGACGGAGTCACCTAGTGCAG”, the binding signal is 12500 fluorescence intensity (a.u.).

Consider “TATGGTTGAGAGACGCGAGTAAAACTTGACTTTTTTTTTACGGAGTCACCTAGTGCAG”, for which the binding signal is 8340 fluorescence intensity (a.u.). As to “TGTTTGACACCGTTGACTTTTTAGCACATGTTTGACCGTTCGGAGTCACCTAGTGCAG”, the binding signal is 38000 fluorescence intensity (a.u.).

Consider “TCCGCCCTCATTATCTCCTCGTTTTTCCCTGATCTTTTCTCGGAGTCACCTAGTGCAG”, for which the binding signal was 10400 fluorescence intensity (a.u.).

In the case of “AAACATTTCCGGGTTCCCTCCTCTTCTCTTCCCGCGAAAACGGAGTCACCTAGTGCAG”, the binding signal was 9130 fluorescence intensity (a.u.). As for “CGAAAACGCATCCATTCATCAACACACATCAACCTGACAACGGAGTCACCTAGTGCAG”, the figure is 9130 fluorescence intensity (a.u.); as for “CGCGTCACCTGCTTGGCGCAGTACTTCTGCTACACTCTCTCGGAGTCACCTAGTGCAG”, 8470 fluorescence intensity (a.u.). The result for “AGGTTGAATATATCATGCCTCTGCTCAACTTCTGGTATTTCGGAGTCACCTAGTGCAG” reads 8060 fluorescence intensity (a.u.); that for “CACATGTTATTTACTCCCACGCTCGATCTTCTTTTTTTTCCGGAGTCACCTAGTGCAG”, 15100 fluorescence intensity (a.u.); that for “CTATCCACCGTTCCATAGCACCAATGGGCAAGCAAGCTACCGGAGTCACCTAGTGCAG”, 8600 fluorescence intensity (a.u.). Consider “ACAGTTTATGAATCCTTTTTGTTTTACATTTTCTTCAGCTCGGAGTCACCTAGTGCAG”, for which the binding signal is 11100 fluorescence intensity (a.u.).

Turning to “AGTTAGAATCATTGTCCAAAAGTATTTATATCTTGTTCCACGGAGTCACCTAGTGCAG”, the binding signal was 8180 fluorescence intensity (a.u.). Regarding “TCCCACCTGCCTCGCTACCTCCGACTTCGCCTCGTCCCCACGGAGTCACCTAGTGCAG”, the binding signal is 8340 fluorescence intensity (a.u.). In the case of “ATTTTTATTTTCCACAACTAATTGTCCTTTGTTGAATTTCCGGAGTCACCTAGTGCAG”, the binding signal was 13900 fluorescence intensity (a.u.). On to “CCCAAAGGCCCATGACAGGTGATGCAGCATCTTGTTTCTTCGGAGTCACCTAGTGCAG”, for which the binding signal is 8690 fluorescence intensity (a.u.). Turning to “ACATAGACACAATTTCACCATTTCTAATCGGACGGCGCGCCGGAGTCACCTAGTGCAG”, the binding signal is 8220 fluorescence intensity (a.u.). As for “AAAAACGGCGACGACACCCAAACCCATCGTCGCTTCCGCGCGGAGTCACCTAGTGCAG”, the binding signal was 8150 fluorescence intensity (a.u.). Take “GGTGTAAGCGGATAGCGCATCGGGTAGGGATCATTAAGTACGGAGTCACCTAGTGCAG”: the binding signal is 8440 fluorescence intensity (a.u.). For “GTCTCATGCAAGACATGGTTTCTTTCTCTTTCCTCATTTACGGAGTCACCTAGTGCAG”, the binding signal is 8930 fluorescence intensity (a.u.). Consider “TCTAGGGTTAGGGTTTCGTGATTTTTGGTTTTTTATTTTTCGGAGTCACCTAGTGCAG”, for which the binding signal was 16900 fluorescence intensity (a.u.).

In the case of “CGCAATTGACATTTTATCACACGTTTAATCATTCATCTTACGGAGTCACCTAGTGCAG”, the binding signal is 8760 fluorescence intensity (a.u.).

Turning to “TGTGTGGTGGTTCTGAGTTGGTGGACGGCGATCTGCAGTCCGGAGTCACCTAGTGCAG”, the binding signal is 10500 fluorescence intensity (a.u.). In the case of “AACTTTACTTTTTCTCATAGTGTTGATTAGATATATGTTTCGGAGTCACCTAGTGCAG”, the binding signal was 10600 fluorescence intensity (a.u.). As for “AATTGGGTTCGAATTTTTCTCTGGTTCGCTTGTGATTTTGCGGAGTCACCTAGTGCAG”, the figure is 8240 fluorescence intensity (a.u.). With “TAGACCTCTCATACTTATGGTAGCTGCCGGTTGGTTGTCACGGAGTCACCTAGTGCAG”, the binding signal was 9120 fluorescence intensity (a.u.). On to “TTGGTAGCCTCCCTCGCCGCCGCTTCGCCGCATTTCGGTTCGGAGTCACCTAGTGCAG”, for which the binding signal is 8800 fluorescence intensity (a.u.).

Take “GTCCAAGTTTGCCTTTCTCACTGGGGAGCGGGTGGGCTGTCGGAGTCACCTAGTGCAG”: the binding signal is 21000 fluorescence intensity (a.u.).

With “ATTAATGTTGTGTGTTAAAACTTTCTAATGTGTCAGCTACCGGAGTCACCTAGTGCAG”, the binding signal is 11000 fluorescence intensity (a.u.). As for “AGTGTTTCCCTGCAAAACAAGTTTCACGTTCCTTTTTTTTCGGAGTCACCTAGTGCAG”, the figure is 8770 fluorescence intensity (a.u.); as for “GCTAACATGTTCCGCTGTCTCGCCCATGCTAGGTATCATCCGGAGTCACCTAGTGCAG”, 10800 fluorescence intensity (a.u.); as for “TTTCTTCCTTTTTGGCCCAATCCCTTTTCTTTTATCTTCTCGGAGTCACCTAGTGCAG”, 13400 fluorescence intensity (a.u.).

As for “TCCATGCGGGACTTAACTGAACATCATCTAATTTTTTTTACGGAGTCACCTAGTGCAG”, the binding signal is 8990 fluorescence intensity (a.u.). In the case of “TGTGCACGTCAGTCTGACGCCTCAATCCTTCCCGTGCACACGGAGTCACCTAGTGCAG”, the binding signal was 9050 fluorescence intensity (a.u.). In the case of “ATTGGGTTGATGGGAGGTGTTTCTCGGCTTAGAGGGATGGCGGAGTCACCTAGTGCAG”, the binding signal is 12900 fluorescence intensity (a.u.). Consider “GGGGAAATTGTACTCGTAGCTCTGTAAGGGCTGGATCACGCGGAGTCACCTAGTGCAG”, for which the binding signal was 9410 fluorescence intensity (a.u.). As for “TGAGGTAGATAGGCGGTGGGATATGTGCGGCCTGCGGGGACGGAGTCACCTAGTGCAG”, the figure is 11300 fluorescence intensity (a.u.). The result for “CGTCTCGTCCGCGACACCCCGGCCCCAATTCCAACACGCGCGGAGTCACCTAGTGCAG” reads 9080 fluorescence intensity (a.u.). On to “ACGTTTCTTTTATAGGCATTCAACGAGTAGATCTCTAACCCGGAGTCACCTAGTGCAG”, for which the binding signal was 9600 fluorescence intensity (a.u.).
